Measured values taken from the supplement of paper PMC6078165.
Values are relative to the signal before dosing, not to a vehicle control; the signal also falls without drug.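 Fibroblast labels name human fibroblasts: mostly primary ones from tissues such as uterus (C12385, HUF), lung (H6013), bone (Hs27A), adrenal (HADF) and skin (WS1), plus mammary HMF and breast cancer-associated Hs343T. The cancer cells are basal-like or mesenchymal-like triple-negative breast cancer lines. The paper calls a changed response a hit when it shifts by more than 3x the replicate standard deviation. The tissue of the other fibroblasts is not given here.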

Tested on: BT20
Test: relative JC-1 red fluorescence (viability) vs pre-drug, coculture with fibroblast (fraction); higher = more viable cancer cells
Conditions: 100 µM
Description: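 JC-1 labelled TNBC cells cocultured 1:1 (1,500 cells each) with CellTrace Violet stained primary or stromal fibroblasts in 384-well plates in FluoroBrite medium, treated with one of 42 anticancer drugs at 0.1, 1, 10 or 100 uM. JC-1 red fluorescence (mitochondrial integrity in cancer cells only) was read by plate reader every 8 h for 72 h. Values are normalised to each well's pre-drug value. The stock of one drug was tenfold lower, so its dose labels may be too high.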

CC[C@]1(O)C[C@@H]2CN(CCc3c([nH]c4ccccc34)[C@@](C(=O)OC)(c3cc4c(cc3OC)N(C)[C@H]3[C@@](O)(C(=O)OC)[C@H](OC(C)=O)[C@]5(CC)C=CCN6CC[C@]43[C@@H]65)C2)C1 [Vinblastine]
relative JC-1 red fluorescence
Conditions	8 h	16 h	24 h	32 h	40 h	48 h	56 h	64 h	72 h
coculture fibroblast: C12385	0.729	0.579	0.472	0.379	0.301	0.275	0.241	0.24	0.207
coculture fibroblast: H6013	0.82013	0.593	0.469	0.312	0.231	0.191	0.175	0.145	0.118
coculture fibroblast: H6019	0.646	0.531	0.445	0.356	0.296	0.272	0.243	0.219	0.197
coculture fibroblast: H6076	0.914	0.639	0.503	0.439	0.374	0.315	0.267	0.233	0.184
coculture fibroblast: H6231	0.947	0.628	0.39	0.281	0.184	0.134	0.0973	0.0702	0.0469
coculture fibroblast: HADF	0.924	0.793	0.646	0.439	0.354	0.293	0.268	0.243	0.203
coculture fibroblast: HCFa	0.814	0.785	0.634	0.428	0.32	0.278	0.245	0.217	0.175
coculture fibroblast: HCPF	0.918	0.603	0.447	0.374	0.336	0.289	0.236	0.208	0.158
coculture fibroblast: HHSteC	0.818	0.5508	0.465	0.306	0.251	0.21	0.194	0.17	0.138
coculture fibroblast: HMF	0.937	0.593	0.405	0.34	0.284	0.233	0.203	0.169	0.129
coculture fibroblast: HPFa	0.771	0.678	0.551	0.363	0.287	0.227	0.204	0.174	0.137
coculture fibroblast: HUF	0.754	0.671	0.585	0.395	0.292	0.238	0.207	0.175	0.155
coculture fibroblast: Hs5	0.9255	0.601	0.495	0.378	0.302	0.25	0.204	0.167	0.13
coculture fibroblast: Hs27A	0.865	0.82	0.872	0.619	0.511	0.474	0.457	0.422	0.372
coculture fibroblast: Hs343T	0.838	0.49	0.301	0.236	0.19	0.143	0.0981	0.0741	0.044
coculture fibroblast: WS1	0.598	0.395	0.326	0.249	0.188	0.16	0.137	0.117	0.106
